Laboratory results taken from patent US20190111150A1.
These are yes or no findings as the source states them, for the method shown. Some results given as binding are weak or reduced against the parent protein; the word gives no strength.

Key:
[1] = target: human CD71 on the surface of human cell lines (human) (UniProt P02786); assay: FACS on cells
[2] = target: human CD71 on the surface of human cell lines (human) (UniProt P02786); assay: FACS on BxPC3 cells

binding [1]: binds | binding [2]: binds
B1: anti-CD71 M21 mouse monoclonal antibody (antibody, V domains shown)
VH: EVQLQESGTVLARPGASVKMSCKASGYTFTSYWMHWVKQRPGQGLEWIGAIYPGNSETGYNQNFKGKAKLTAVTSASTAYMDLSSLTNEDSAVYYCTRENWDPGFAFWGQGTLITVSA
VL: DIVMTQTPAIMSASPGEKVTITCSASSSVYYMYWFQQKPGTSPKLWIYSTSNLASGVPVRFSGSGSGTSYSLTISRMEAEDAATYYCQQRRNYPYTFGGGTKLEIKR
